Source: US20110306071A1, “Compositions and Methods for Identifying Substrate Specificity of Inhibitors of Gamma Secretase” (ELAN PHARMACEUTICALS, INC., priority 2007, published 2011)

System: gamma secretase
Experiment: Aβ production from C99GVP and mutant or chimeric substrates in transfected HEK cells (ELISA, IP/Western blot)
Format: cell-based, Human
Conditions: conditioned media
Description: Plasmid Construction of JMD Chimeric Substrates: A pcDNA3.1-C99 plasmid similar to the previously described SPA4CT-LE construct (Dyrks, et al., FEBS Lett., 1992; 309: 20-24) was generated by standard PCR techniques. The APP signal peptide was fused to the N-terminus of the C99 fragment via a dipeptide leucine-glutamic acid (LE) linker. The strategy used to generate the pcDNA3.1-C99GVP construct was similar to a previously described method (Karlstrom, H., et al., J. Biol. Chem., 2002; 277: 6763-6766). (See, generally, FIG. 3). Briefly, an AscI site was introduced immediately 3′ of the nucleotides encoding the triple-lysine (K) membrane anchor of C99, where the GVP coding sequence was subsequently inserted in frame (to the C-terminal side of the lysine membrane anchor sequence of C99). […] All three chimeras were constructed by using a two-stage PCR method with two pairs of overlapping primers (for list of primers, see Table I). These chimeric substrates were characterized to assess activity as gamma secretase substrates and subsequent production and secretion of Aβ and AICD (FIGS. 6-7). […] The C99GVP-SLSS quadruple JMD chimera was also constructed with the same PCR method. Point mutations within the luminal juxtamembrane domain (i.e., C99GVP-G25S, S26L, N27S and K28S; FIGS. 2 and 9A-D) were generated using QuikChange (Stratagene) site-directed mutagenesis kit according to the manufacturer's instructions. All cDNAs were verified by sequencing. […]
Cell Culture and Transient Transfection: Human embryonic kidney 293 (HEK 293) cells (ATCC) were grown in Dulbecco's Modified Eagle Medium with High Glucose (DMEM, obtained from Gibco/Invitrogen, Cat #11960) supplemented with 10% fetal bovine serum (Hyclone, SV 30014.03) and 50 units/ml penicillin and streptomycin (37° C., 5% CO2). […] At the time of seeding, viability of cells was greater than 95% as determined using a Vi-Cell Analyzer (Beckman-Coulter). Confluence of cells on plates was kept at greater than 95% during all phases of the experiment as determined with a standard tissue culture inverted microscope. […]

C99GVP: 99 amino acid C-terminal fragment of APP with Gal4-VP16 domain inserted in-frame (SEQ ID NO:47)
Aβ42 fraction of the total Aβ: 15.7±2.5%
secreted Aβ40 (ELISA, FIG. 5D): 210.8 ± 19.2 µM
secreted Aβ42 (ELISA, FIG. 5D): 39.1 ± 6.4 µM
